Measurements reported in PubChem BioAssay AID504793 (Drosophila RNAi Screening Center, 2011).
Aim: 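Whole-genome screen for parts of the DNA damage checkpoint at G2/M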 (primary screen). System: Drosophila S2R+ cells. Reagents: long dsRNA against Drosophila genes, about 0.25 µg dsRNA per well. Timing: 4 days of dsRNA, then 4 hours of drug before read-out. Conditions: doxorubicin 0.5 µM for 4 hours to cause double-strand breaks, in cells also given a low, harmless dose of dsRNA against nbs to sensitise the assay. Measurement: 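Mitotic index as the number of phospho-histone H3-positive cells in each well following doxorubicin, given as raw counts without normalisation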. Scale: mitotic cells: higher = more cells in mitosis, weaker G2 arrest. Hit rule: 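a call needs confirmation in secondary tests, with other dsRNAs and a check of mitotic timing without damage, not just a high primary count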. Meaning of the calls: active = confirmed in follow-up tests; inactive = not confirmed.
The deposit covers about 23,000 reagents; below is an unselected part of those that have a named target and a result. Over the whole deposit, 62 (0.27%) are marked active. 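Calls come from follow-up tests whose scores are not deposited, so confirmed genes may have low counts here; counts are not normalised per plate.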 The raw values are shown without normalisation. A plus sign joins genes that one reagent is predicted to hit.

| target | DRSC id | mitotic cells, replicate 1 | activity call |
| --- | --- | --- | --- |
| CG9641 | DRSC00721 | 4 | inactive |
| CG9641 | DRSC27080 | 2 | inactive |
| CG7251 | DRSC03039 | 9 | inactive |
| CG7251 | DRSC28293 | 8 | inactive |
| mfrn | DRSC15687 | 10 | inactive |
| Ciz1 | DRSC09675 | 6 | inactive |
| Ciz1 | DRSC25065 | – | inactive |
| CG13693 | DRSC00362 | 3 | inactive |
| CG13693 | DRSC25981 | 9 | inactive |
| CG30148 | DRSC06391 | 4 | inactive |
| Plp | DRSC10006 | 2 | inactive |
| Plp | DRSC10333 | 5 | inactive |
| Plp | DRSC10700 | 2 | inactive |
| PGS1 | DRSC16304 | 6 | inactive |
| CG13457 | DRSC10004 | 2 | inactive |
| CG13457 | DRSC29775 | 12 | inactive |
| CG7376 | DRSC10829 | 8 | inactive |
| CG31221 | DRSC14335 | 7 | inactive |
| CG31221 | DRSC16217 | 8 | inactive |
| CG31221 | DRSC23748 | 8 | inactive |
| CG3036 | DRSC00260 | 19 | inactive |
| CG3036 | DRSC00562 | 5 | inactive |
| CG3036 | DRSC24856 | 7 | inactive |
| Mlp84B | DRSC12596 | 6 | inactive |
| dbe | DRSC00811 | 5 | inactive |
| Cyp4ae1 | DRSC18455 | 12 | inactive |
| Cyp4ae1 | DRSC27698 | 8 | inactive |
| ECSIT | DRSC12348 | 4 | inactive |
| CG9915 | DRSC21565 | 13 | inactive |
| CG9915 | DRSC27327 | 4 | inactive |
| CG16824 | DRSC02525 | 4 | inactive |
| CG33189 | DRSC21427 | 15 | inactive |
| CG33189 | DRSC25923 | 4 | inactive |
| CG5704 | DRSC08572 | 5 | inactive |
| pdm3 | DRSC06076 | 6 | inactive |
| pdm3 | DRSC23181 | 6 | inactive |
| pdm3 | DRSC27184 | 4 | inactive |
| pdm3 | DRSC29989 | 6 | inactive |
| AP-2mu | DRSC14090 | 7 | inactive |
| AP-2mu | DRSC28264 | 3 | inactive |
| Gclm | DRSC15677 | 9 | inactive |
| Gclm | DRSC26358 | 6 | inactive |
| sha | DRSC06331 | 4 | inactive |
| CG13494 | DRSC04139 | 3 | inactive |
| CG13494 | DRSC26588 | 6 | inactive |
| Sgs4 | DRSC18715 | 8 | inactive |
| Sgs4 | DRSC28964 | 6 | inactive |
| lncRNA:CR32730 | DRSC22957 | 9 | inactive |
| PheRS-m | DRSC05915 | 5 | inactive |
| CG6656 | DRSC16085 | 4 | inactive |
| CG6254 | DRSC16002 | 6 | inactive |
| CG17177 | DRSC10257 | 2 | inactive |
| CG1246 | DRSC08275 | 5 | inactive |
| Shrm | DRSC06438 | 4 | inactive |
| Shrm | DRSC07221 | 7 | inactive |
| Shrm | DRSC23067 | 10 | inactive |
| Shrm | DRSC25072 | 2 | inactive |
| Shrm | DRSC27498 | 10 | inactive |
| cpa | DRSC04080 | 5 | inactive |
| CG32544 | DRSC20033 | 1 | inactive |
| CG32544 | DRSC25570 | 6 | inactive |
| TotX | DRSC22206 | 8 | inactive |
| TotX | DRSC29108 | 7 | inactive |
| Cht11 | DRSC18270 | 9 | inactive |
| Cht11 | DRSC25942 | 6 | inactive |
| tos | DRSC03624 | 5 | inactive |
| dysc | DRSC10273 | 12 | inactive |
| dysc | DRSC11040 | 6 | inactive |
| dysc | DRSC22334 | 14 | inactive |
| dysc | DRSC22824 | 8 | inactive |
| dysc | DRSC26188 | 7 | inactive |
| CG14969 | DRSC08428 | 4 | inactive |
| CG5188 | DRSC02826 | 5 | inactive |
| MFS18 | DRSC00452 | 7 | inactive |
| Baldspot | DRSC09671 | 4 | inactive |
| Polr3K + Tcs1 | DRSC05988 | 6 | inactive |
| Polr3K + Tcs1 | DRSC26790 | 4 | inactive |
| eIF6 | DRSC04674 | 11 | inactive |
| eIF6 | DRSC29068 | 2 | inactive |
| Inx6 | DRSC20579 | 12 | inactive |
| Inx6 | DRSC26299 | 9 | inactive |
| ras | DRSC18825 | 5 | inactive |
| ras | DRSC27137 | 9 | inactive |
| pod1 | DRSC18362 | 6 | inactive |
| pod1 | DRSC23544 | 5 | inactive |
| cu | DRSC15643 | 4 | inactive |
| cu | DRSC15648 | 5 | inactive |
| VhaAC45 | DRSC07058 | 5 | inactive |
| CG32652 (retired record) | DRSC18942 | 8 | inactive |
| CG32652 (retired record) | DRSC22662 | 5 | inactive |
| CG32652 (retired record) | DRSC27195 | 6 | inactive |
| HisT | DRSC05051 | 11 | inactive |
| HisT | DRSC06405 | 10 | inactive |
| CG31121 | DRSC15361 | – | inactive |
| CG31121 | DRSC15363 | 8 | inactive |
| CG7579 | DRSC10885 | 4 | inactive |
| CG13321 | DRSC06358 | 4 | inactive |
| CG13321 | DRSC27458 | 6 | inactive |
| CG15536 | DRSC15072 | 3 | inactive |
| CG15536 | DRSC22844 | 7 | inactive |
| CG15536 | DRSC27663 | 6 | inactive |
| RpL5 | DRSC03801 | 4 | inactive |
| RpL5 | DRSC29038 | 6 | inactive |
| Ipk1 | DRSC04235 | 4 | inactive |
| Ipk1 | DRSC04236 | 3 | inactive |
| Ipk1 | DRSC04237 | 2 | inactive |
| CG18428 | DRSC15326 | 11 | inactive |
| CG18428 | DRSC29185 | – | inactive |
| CG13623 | DRSC14625 | 18 | inactive |
| l(2)k10201 | DRSC06439 | 7 | inactive |
| l(2)k10201 | DRSC07640 | 4 | inactive |

Entries listed so far whose target name starts with R or r (4):
| target | DRSC id | mitotic cells, replicate 1 | activity call |
| --- | --- | --- | --- |
| ras | DRSC18825 | 5 | inactive |
| ras | DRSC27137 | 9 | inactive |
| RpL5 | DRSC03801 | 4 | inactive |
| RpL5 | DRSC29038 | 6 | inactive |
